Sequences of proteins named here, by UniProt entry; tags and fusion partners are left off. Residues count along the entry.
UniProt Q6DV88, residues 2507-3411: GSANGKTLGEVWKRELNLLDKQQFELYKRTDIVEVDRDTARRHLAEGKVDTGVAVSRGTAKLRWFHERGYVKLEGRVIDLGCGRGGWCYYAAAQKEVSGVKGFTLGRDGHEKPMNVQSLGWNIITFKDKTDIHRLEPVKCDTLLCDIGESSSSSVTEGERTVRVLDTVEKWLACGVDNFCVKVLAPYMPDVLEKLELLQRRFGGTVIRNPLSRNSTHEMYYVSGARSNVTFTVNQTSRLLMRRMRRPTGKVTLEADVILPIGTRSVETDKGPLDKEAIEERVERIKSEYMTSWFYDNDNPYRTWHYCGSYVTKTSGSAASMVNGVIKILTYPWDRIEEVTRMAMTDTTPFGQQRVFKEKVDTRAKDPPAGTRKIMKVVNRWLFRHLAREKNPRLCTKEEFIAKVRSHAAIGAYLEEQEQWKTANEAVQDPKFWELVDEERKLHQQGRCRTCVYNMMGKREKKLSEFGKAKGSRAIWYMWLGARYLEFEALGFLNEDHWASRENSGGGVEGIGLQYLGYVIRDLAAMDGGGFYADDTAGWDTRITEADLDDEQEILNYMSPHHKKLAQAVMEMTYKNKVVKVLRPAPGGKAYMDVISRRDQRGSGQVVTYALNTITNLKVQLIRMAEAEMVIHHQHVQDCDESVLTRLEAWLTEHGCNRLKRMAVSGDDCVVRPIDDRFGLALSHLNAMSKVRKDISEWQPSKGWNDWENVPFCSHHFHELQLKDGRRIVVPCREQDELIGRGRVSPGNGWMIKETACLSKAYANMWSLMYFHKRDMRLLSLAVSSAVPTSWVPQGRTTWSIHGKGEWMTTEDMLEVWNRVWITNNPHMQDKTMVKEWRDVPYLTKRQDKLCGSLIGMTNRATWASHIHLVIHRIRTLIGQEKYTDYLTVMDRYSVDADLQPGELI
UniProt Q7Z6E9: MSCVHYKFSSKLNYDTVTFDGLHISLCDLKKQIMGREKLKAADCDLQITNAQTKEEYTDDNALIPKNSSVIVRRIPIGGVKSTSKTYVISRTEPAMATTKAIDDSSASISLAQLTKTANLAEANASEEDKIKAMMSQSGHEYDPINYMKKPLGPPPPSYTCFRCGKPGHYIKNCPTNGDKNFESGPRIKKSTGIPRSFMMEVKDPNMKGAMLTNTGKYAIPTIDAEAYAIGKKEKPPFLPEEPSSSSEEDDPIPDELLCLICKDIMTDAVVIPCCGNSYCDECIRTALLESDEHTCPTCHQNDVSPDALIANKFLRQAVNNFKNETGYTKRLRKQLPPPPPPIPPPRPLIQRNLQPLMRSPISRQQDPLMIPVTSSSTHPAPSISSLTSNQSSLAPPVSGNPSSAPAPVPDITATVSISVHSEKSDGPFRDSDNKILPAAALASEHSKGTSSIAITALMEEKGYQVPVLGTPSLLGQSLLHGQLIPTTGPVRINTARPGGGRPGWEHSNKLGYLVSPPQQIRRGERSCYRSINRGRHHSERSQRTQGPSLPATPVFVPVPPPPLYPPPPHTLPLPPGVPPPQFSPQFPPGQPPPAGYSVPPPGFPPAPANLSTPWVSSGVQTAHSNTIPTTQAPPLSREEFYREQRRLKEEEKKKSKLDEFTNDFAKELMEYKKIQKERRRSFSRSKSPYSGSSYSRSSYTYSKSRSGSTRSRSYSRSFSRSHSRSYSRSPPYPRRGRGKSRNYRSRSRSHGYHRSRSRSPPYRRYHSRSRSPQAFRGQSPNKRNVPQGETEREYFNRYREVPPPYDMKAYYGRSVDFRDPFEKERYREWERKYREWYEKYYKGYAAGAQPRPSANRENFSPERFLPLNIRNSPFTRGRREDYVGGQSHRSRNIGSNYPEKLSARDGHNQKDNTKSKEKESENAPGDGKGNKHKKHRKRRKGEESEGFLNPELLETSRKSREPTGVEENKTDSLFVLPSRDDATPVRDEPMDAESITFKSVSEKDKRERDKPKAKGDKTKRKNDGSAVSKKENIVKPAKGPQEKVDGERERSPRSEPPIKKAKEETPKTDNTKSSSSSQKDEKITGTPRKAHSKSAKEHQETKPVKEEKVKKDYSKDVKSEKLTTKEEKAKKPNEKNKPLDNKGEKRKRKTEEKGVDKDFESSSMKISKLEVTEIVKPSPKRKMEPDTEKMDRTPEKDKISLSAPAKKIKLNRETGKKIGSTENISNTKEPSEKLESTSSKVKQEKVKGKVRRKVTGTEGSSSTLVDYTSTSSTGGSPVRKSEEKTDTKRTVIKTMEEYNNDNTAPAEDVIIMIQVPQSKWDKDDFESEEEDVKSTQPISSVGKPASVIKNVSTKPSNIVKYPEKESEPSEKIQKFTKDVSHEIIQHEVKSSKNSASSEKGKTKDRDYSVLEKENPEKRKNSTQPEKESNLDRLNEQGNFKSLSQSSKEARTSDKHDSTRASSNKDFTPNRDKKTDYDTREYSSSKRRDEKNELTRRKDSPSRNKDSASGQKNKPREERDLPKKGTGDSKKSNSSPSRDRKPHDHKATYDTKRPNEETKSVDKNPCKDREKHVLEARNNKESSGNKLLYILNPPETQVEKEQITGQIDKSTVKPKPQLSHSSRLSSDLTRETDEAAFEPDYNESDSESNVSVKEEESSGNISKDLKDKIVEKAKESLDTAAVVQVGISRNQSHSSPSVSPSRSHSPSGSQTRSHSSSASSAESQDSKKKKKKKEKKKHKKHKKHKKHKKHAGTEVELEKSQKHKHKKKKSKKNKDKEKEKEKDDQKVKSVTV

According to article doi:10.1101/2025.06.14.659623:

Target: YFV-Asibi NS5 with C-terminal 2xStrep II affinity tag (yellow fever virus, strain Asibi) (UniProt Q6DV88)
Assay: affinity purification with mass spectrometry

“RBBP6 (retinoblastoma binding protein 6), endogenous in HEK293T (from UniProt Q7Z6E9 1-1792)” was tested, and the binding was “binds”.

Results are given in words; binding and its absence hold for the method and conditions named. In cells and extracts the contact can be indirect. Here binding means that the protein was enriched with, or labelled near, the bait; the list need not be complete.
